Data taken from paper PMC10166787.
These are yes or no findings as the source states them, for the method shown. In cells and extracts the contact can be indirect. Some binding calls cover weakened binding; strength is not graded here.

Sequences of proteins named here, by UniProt entry; tags and fusion partners are left off. A change or cut given only in a name is not applied to a line headed by its entry.
UniProt Q9BV86: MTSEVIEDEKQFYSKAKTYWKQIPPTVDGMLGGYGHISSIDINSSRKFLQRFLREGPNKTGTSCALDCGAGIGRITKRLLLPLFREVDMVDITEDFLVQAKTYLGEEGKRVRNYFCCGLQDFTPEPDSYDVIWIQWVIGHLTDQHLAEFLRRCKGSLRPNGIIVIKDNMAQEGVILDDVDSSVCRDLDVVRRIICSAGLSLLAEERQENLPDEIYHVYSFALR
UniProt Q5VVY1: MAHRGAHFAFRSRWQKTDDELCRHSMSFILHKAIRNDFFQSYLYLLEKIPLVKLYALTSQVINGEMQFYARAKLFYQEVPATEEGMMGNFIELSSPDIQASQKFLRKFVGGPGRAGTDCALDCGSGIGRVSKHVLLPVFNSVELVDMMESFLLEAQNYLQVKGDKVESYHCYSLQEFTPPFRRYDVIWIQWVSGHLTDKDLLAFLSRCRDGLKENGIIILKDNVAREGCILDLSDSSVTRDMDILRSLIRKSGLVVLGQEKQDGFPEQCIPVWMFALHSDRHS

Key:
METTL11A-FLAG (human) = METTL11A-FLAG (human) (UniProt Q9BV86); assay: co-IP; HEK293T cells co-transfected with a FLAG and a GFP construct; lysis in 50 mM Tris, 300 mM NaCl, 5 mM MgCl2, 1% NP-40, 7 mM BME; anti-FLAG M2 agarose, 1 to 2 h at 4 °C; washes with PBS + 0.1% NP-40 + 500 mM NaCl; Western blot with anti-GFP
[1] = target: METTL11A-FLAG R78G (human) (UniProt Q9BV86); assay: as above

METTL11B-GFP (from UniProt Q5VVY1 1-283) (enzyme)
binding (METTL11A-FLAG (human)): binds
binding [1]: binds
